{"source": "the supplement of paper PMC4604168 (melanoma cell lines)", "note": "The list shows a part of the results. Many values rest on one well or one pass, so single values are uncertain.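 The apoptosis fraction was the count of cleaved-PARP antibody-stained nuclei relative to all DNA-stained nuclei, imaged in 1,536-well plates. Screening doses were set so most cells survived, and baseline and induced cleaved-PARP levels vary greatly across cell lines.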"}
{"tested_on": "SkMel30", "assay": "cleaved PARP positive nuclei fraction relative to DMSO control; melanoma cells; higher = more apoptosis", "conditions": "library dose: low library concentration; 72 h", "units": {"cleaved PARP positive nuclei fraction": "%"}}
{"smiles": "OCCn1cc(-c2cnc3nnn(Cc4ccc5ncccc5c4)c3n2)cn1", "note": "+ O=C(O)C(=O)Nc1sc2c(c1C(=O)O)CCNC2 [TCS401] (first compound 1 µM, partner dose 1.66667 µM)", "cleaved PARP positive nuclei fraction": 112}
{"smiles": "C=CCn1c(=O)c2cnc(Nc3ccc(N4CCN(C)CC4)cc3)nc2n1-c1cccc(C(C)(C)O)n1", "note": "+ Oc1nc(-c2ccc(C(F)(F)F)cc2)nc2c1CSCC2 [XAV939] (first compound 0.02 µM, partner dose 2 µM)", "cleaved PARP positive nuclei fraction": 46.1}
{"smiles": "Nc1cccc2c1CN(C1CCC(=O)NC1=O)C2=O", "note": "(configuration not stated) [lenalidomide] + CCCCCCCCCCCC1=C(O)C(=O)C=C(O)C1=O [Embelin] (first compound 1 µM, partner dose 1.2 µM)", "cleaved PARP positive nuclei fraction": 82}
{"smiles": "C[C@@H]1CCN(C(=O)CC#N)C[C@@H]1N(C)c1ncnc2[nH]ccc12", "note": "+ Oc1cc(-c2nc(-c3ccccc3)[nH]c2-c2ccncc2)ccc1Cl [L779450] (first compound 1 µM, partner dose 0.2 µM)", "cleaved PARP positive nuclei fraction": 30.2}
{"smiles": "Cc1cc(N2CCOCC2)cc2[nH]c(-c3c(NC[C@@H](O)c4cccc(Cl)c4)cc[nH]c3=O)nc12", "note": "+ Cc1cc([N+](=O)[O-])ccc1NS(=O)(=O)c1cc(Cl)ccc1Cl [FH535] (first compound 0.2 µM, partner dose 1 µM)", "cleaved PARP positive nuclei fraction": 215}
{"smiles": "C=CCn1c(=O)c2cnc(Nc3ccc(N4CCN(C)CC4)cc3)nc2n1-c1cccc(C(C)(C)O)n1", "note": "+ O=C1NC(=O)/C(=C/c2ccc(-c3ccc(F)cc3O)o2)S1 [AS252424] (first compound 0.02 µM, partner dose 1 µM)", "cleaved PARP positive nuclei fraction": 138}
{"smiles": "Cc1ccc(NC(=O)c2cccc(N(C)C)c2)cc1NC(=O)c1ccc(O)cc1", "note": "+ N#Cc1c(O)c2c(-c3ccc(-c4ccccc4O)cc3)csc2[nH]c1=O [A769662] (first compound 2 µM, partner dose 2 µM)", "cleaved PARP positive nuclei fraction": 33.1}
{"smiles": "Cn1cncc1[C@@](N)(c1ccc(Cl)cc1)c1ccc2c(c1)c(-c1cccc(Cl)c1)cc(=O)n2C", "note": "[tipifarnib] + CCN(CC)CCCCNc1ncc2cc(-c3cc(OC)cc(OC)c3)c(NC(=O)NC(C)(C)C)nc2n1 [PD173074] (first compound 0.01 µM, partner dose 0.1 µM)", "cleaved PARP positive nuclei fraction": 51.6}
{"smiles": "O=C(CCCCCCC(=O)Nc1ccccc1)NO", "note": "[vorinostat] + CCCCCCCCCCCC1=C(O)C(=O)C=C(O)C1=O [Embelin] (first compound 0.08 µM, partner dose 1.2 µM)", "cleaved PARP positive nuclei fraction": 275}
{"smiles": "Cn1nnc2c(C(N)=O)ncn2c1=O", "note": "[temozolomide] + Cn1cc(/C=C2\\C(=O)Nc3cccnc32)c2ccccc21 [GW441756] (first compound 2 µM, partner dose 0.4 µM)", "cleaved PARP positive nuclei fraction": 68.4}
{"smiles": "Nc1cccc2c1CN(C1CCC(=O)NC1=O)C2=O", "note": "(configuration not stated) [lenalidomide] + COc1cc2ncnc(Nc3ccc(Oc4ccccc4)cc3)c2cc1OC [SrcI1] (first compound 1 µM, partner dose 2 µM)", "cleaved PARP positive nuclei fraction": 37.4}
{"smiles": "COc1cc(Nc2ncc(F)c(Nc3ccc4c(n3)NC(=O)C(C)(C)O4)n2)cc(OC)c1OC", "note": "[Tamatinib] + CCc1ccc(CCOc2ccc(CC3SC(=O)NC3=O)cc2)nc1 [pioglitazone] (first compound 0.4 µM, partner dose 2 µM)", "cleaved PARP positive nuclei fraction": 24.6}
{"smiles": "Cc1nc(Nc2ncc(C(=O)Nc3c(C)cccc3Cl)s2)cc(N2CCN(CCO)CC2)n1", "note": "[dasatanib] + COc1cc(N2CCC(N3CCN(C)CC3)CC2)ccc1Nc1ncc(Cl)c(Nc2ccccc2S(=O)(=O)C(C)C)n1 [NVP-TAE684] (first compound 0.004 µM, partner dose 0.08 µM)", "cleaved PARP positive nuclei fraction": 16.7}
{"smiles": "Cn1c(Nc2ccc(C(F)(F)F)cc2)nc2cc(Oc3ccnc(-c4ncc(C(F)(F)F)[nH]4)c3)ccc21", "note": "+ Cc1cc([N+](=O)[O-])ccc1NS(=O)(=O)c1cc(Cl)ccc1Cl [FH535] (first compound 0.08 µM, partner dose 1 µM)", "cleaved PARP positive nuclei fraction": 465}
{"smiles": "O=C(CCCCCCC(=O)Nc1ccccc1)NO", "note": "[vorinostat] + O=S(=O)(c1ccccc1)N(CC(F)(F)F)c1ccc(C(O)(C(F)(F)F)C(F)(F)F)cc1 [T0901317] (first compound 0.08 µM, partner dose 1.4 µM)", "cleaved PARP positive nuclei fraction": 35.6}
{"smiles": "CC(C)(C)c1cnc(CSc2cnc(NC(=O)C3CCNCC3)s2)o1", "note": "+ CCc1ccc(CCOc2ccc(CC3SC(=O)NC3=O)cc2)nc1 [pioglitazone] (first compound 0.01 µM, partner dose 2 µM)", "cleaved PARP positive nuclei fraction": 29.1}
{"smiles": "COc1cc(Nc2ncc(F)c(Nc3ccc4c(n3)NC(=O)C(C)(C)O4)n2)cc(OC)c1OC", "note": "[Tamatinib] + Cn1cc(/C=C2\\C(=O)Nc3cccnc32)c2ccccc21 [GW441756] (first compound 0.4 µM, partner dose 0.4 µM)", "cleaved PARP positive nuclei fraction": 25.5}
{"smiles": "C#Cc1cccc(Nc2ncnc3cc(OCCOC)c(OCCOC)cc23)c1", "note": "[erlotinib] + N#Cc1c(O)c2c(-c3ccc(-c4ccccc4O)cc3)csc2[nH]c1=O [A769662] (first compound 0.8 µM, partner dose 2 µM)", "cleaved PARP positive nuclei fraction": 208}
{"smiles": "OCCn1cc(-c2cnc3nnn(Cc4ccc5ncccc5c4)c3n2)cn1", "note": "+ COc1cc(N2CCC(N3CCN(C)CC3)CC2)ccc1Nc1ncc(Cl)c(Nc2ccccc2S(=O)(=O)C(C)C)n1 [NVP-TAE684] (first compound 1 µM, partner dose 0.08 µM)", "cleaved PARP positive nuclei fraction": 145}
{"smiles": "O=C(Nc1cccc(Cl)c1)Nc1ncc(CCNc2ncnc3ccsc23)s1", "note": "+ COc1ccc(COc2ccc(Cc3cnc(N)nc3N)cc2OC)cc1 [GW2580] (first compound 0.0008 µM, partner dose 1 µM)", "cleaved PARP positive nuclei fraction": 20.5}
{"smiles": "Cc1nc(Nc2ncc(C(=O)Nc3c(C)cccc3Cl)s2)cc(N2CCN(CCO)CC2)n1", "note": "[dasatanib] + O=C1NC(=O)/C(=C/c2ccc(-c3ccc(F)cc3O)o2)S1 [AS252424] (first compound 0.004 µM, partner dose 1 µM)", "cleaved PARP positive nuclei fraction": 15.7}
{"smiles": "C[C@]1(c2nc3c(C(N)=O)cccc3[nH]2)CCCN1", "note": "[Veliparib] + Cc1cc([N+](=O)[O-])ccc1NS(=O)(=O)c1cc(Cl)ccc1Cl [FH535] (first compound 1.4 µM, partner dose 1 µM)", "cleaved PARP positive nuclei fraction": 120}
{"smiles": "C[C@@H]1CCN(C(=O)CC#N)C[C@@H]1N(C)c1ncnc2[nH]ccc12", "note": "+ COc1cc2ncnc(Nc3ccc(Oc4ccccc4)cc3)c2cc1OC [SrcI1] (first compound 1 µM, partner dose 2 µM)", "cleaved PARP positive nuclei fraction": 24.3}
{"smiles": "CC1(C)NC(=O)N(c2ccc([N+](=O)[O-])c(C(F)(F)F)c2)C1=O", "note": "[nilutamide] + c1cc(-c2cnn3cc(-c4ccc(OCCN5CCCCC5)cc4)cnc23)ccn1 [Dorsomorphin] (first compound 1 µM, partner dose 0.4 µM)", "cleaved PARP positive nuclei fraction": 53.2}
{"smiles": "C[C@@H]1CCN(C(=O)CC#N)C[C@@H]1N(C)c1ncnc2[nH]ccc12", "note": "+ c1cc(-c2cnn3cc(-c4ccc(OCCN5CCCCC5)cc4)cnc23)ccn1 [Dorsomorphin] (first compound 1 µM, partner dose 0.4 µM)", "cleaved PARP positive nuclei fraction": 23.3}
{"smiles": "NC(=O)Nc1cc(-c2cccc(F)c2)sc1C(=O)N[C@H]1CCCNC1", "note": "+ O=S(=O)(c1ccccc1)N(CC(F)(F)F)c1ccc(C(O)(C(F)(F)F)C(F)(F)F)cc1 [T0901317] (first compound 0.02 µM, partner dose 1.4 µM)", "cleaved PARP positive nuclei fraction": 21.3}
{"smiles": "O=C(Nc1cccc(Cl)c1)Nc1ncc(CCNc2ncnc3ccsc23)s1", "note": "+ COc1cc(N2CCC(N3CCN(C)CC3)CC2)ccc1Nc1ncc(Cl)c(Nc2ccccc2S(=O)(=O)C(C)C)n1 [NVP-TAE684] (first compound 0.0008 µM, partner dose 0.08 µM)", "cleaved PARP positive nuclei fraction": 346}
{"smiles": "C[C@]1(c2nc3c(C(N)=O)cccc3[nH]2)CCCN1", "note": "[Veliparib] + O=S(=O)(c1ccccc1)N(CC(F)(F)F)c1ccc(C(O)(C(F)(F)F)C(F)(F)F)cc1 [T0901317] (first compound 1.4 µM, partner dose 1.4 µM)", "cleaved PARP positive nuclei fraction": 27.8}
{"smiles": "Cc1nc(Nc2ncc(C(=O)Nc3c(C)cccc3Cl)s2)cc(N2CCN(CCO)CC2)n1", "note": "[dasatanib] + CCc1ccc(CCOc2ccc(CC3SC(=O)NC3=O)cc2)nc1 [pioglitazone] (first compound 0.004 µM, partner dose 2 µM)", "cleaved PARP positive nuclei fraction": 31.5}
{"smiles": "CC1(C)NC(=O)N(c2ccc([N+](=O)[O-])c(C(F)(F)F)c2)C1=O", "note": "[nilutamide] + O=c1cc(-c2cccc3c2Sc2ccccc2S3)oc(N2CCOCC2)c1 [KU55933] (first compound 1 µM, partner dose 1 µM)", "cleaved PARP positive nuclei fraction": 29}
{"smiles": "COc1cc(Nc2ncc(F)c(Nc3ccc4c(n3)NC(=O)C(C)(C)O4)n2)cc(OC)c1OC", "note": "[Tamatinib] + Oc1nc(-c2ccc(C(F)(F)F)cc2)nc2c1CSCC2 [XAV939] (first compound 0.4 µM, partner dose 2 µM)", "cleaved PARP positive nuclei fraction": 25.6}
{"smiles": "O=C(CCCCCCC(=O)Nc1ccccc1)NO", "note": "[vorinostat] + O=C(O)C(=O)Nc1sc2c(c1C(=O)O)CCNC2 [TCS401] (first compound 0.08 µM, partner dose 1.66667 µM)", "cleaved PARP positive nuclei fraction": 87.7}
